Laboratory results taken from PMC12826672.
These are yes or no findings as the source states them, for the method shown. In cells and extracts the contact can be indirect. Some entries that bind do so weakly or less than the wild type.

Molecular target: KCNE1 (MinK), modulatory subunit of KCNQ1 (human (endogenous in iPSC-aCMs)) (UniProt P15382)
Experiment: co-IP; anti-KCNE1 (Alomone APC-163) IP from precleared RIPA lysates of WT and TTN-T32756I iPSC-aCMs, Protein A/G agarose beads, 4 °C; immunoblot for FHL2 and MinK

B1: Four-and-a-half LIM domain protein 2 (FHL2) (protein, UniProt Q14192 1-279)
chain: MTERFDCHHCNESLFGKKYILREESPYCVVCFETLFANTCEECGKPIGCDCKDLSYKDRHWHEACFHCSQCRNSLVDKPFAAKEDQLLCTDCYSNEYSSKCQECKKTIMPGTRKMEYKGSSWHETCFICHRCQQPIGTKSFIPKDNQNFCVPCYEKQHAMQCVQCKKPITTGGVTYREQPWHKECFVCTACRKQLSGQRFTARDDFAYCLNCFCDLYAKKCAGCTNPISGLGGTKYISFEERQWHNDCFNCKKCSLSLVGRGFLTERDDILCPDCGKDI
  binding: binds
